No constants are given. Whether binding was seen depends on the method and setting. In cells and extracts the contact can be indirect. Some entries that bind do so weakly or less than the wild type.
Assays:
[1] = molecular target: T1, ubiquitin-like containing PHD and RING finger domains 1 (UHRF1) (rat (endogenous in NRK-49F)) (UniProt Q7TPK1); test: co-IP; NRK-49F cells harvested in IP Lysis buffer; anti-UHRF1 antibody and protein A/G magnetic beads; UHRF1-combined proteins analysed by Western blot; IgG as negative control
T1 sequence: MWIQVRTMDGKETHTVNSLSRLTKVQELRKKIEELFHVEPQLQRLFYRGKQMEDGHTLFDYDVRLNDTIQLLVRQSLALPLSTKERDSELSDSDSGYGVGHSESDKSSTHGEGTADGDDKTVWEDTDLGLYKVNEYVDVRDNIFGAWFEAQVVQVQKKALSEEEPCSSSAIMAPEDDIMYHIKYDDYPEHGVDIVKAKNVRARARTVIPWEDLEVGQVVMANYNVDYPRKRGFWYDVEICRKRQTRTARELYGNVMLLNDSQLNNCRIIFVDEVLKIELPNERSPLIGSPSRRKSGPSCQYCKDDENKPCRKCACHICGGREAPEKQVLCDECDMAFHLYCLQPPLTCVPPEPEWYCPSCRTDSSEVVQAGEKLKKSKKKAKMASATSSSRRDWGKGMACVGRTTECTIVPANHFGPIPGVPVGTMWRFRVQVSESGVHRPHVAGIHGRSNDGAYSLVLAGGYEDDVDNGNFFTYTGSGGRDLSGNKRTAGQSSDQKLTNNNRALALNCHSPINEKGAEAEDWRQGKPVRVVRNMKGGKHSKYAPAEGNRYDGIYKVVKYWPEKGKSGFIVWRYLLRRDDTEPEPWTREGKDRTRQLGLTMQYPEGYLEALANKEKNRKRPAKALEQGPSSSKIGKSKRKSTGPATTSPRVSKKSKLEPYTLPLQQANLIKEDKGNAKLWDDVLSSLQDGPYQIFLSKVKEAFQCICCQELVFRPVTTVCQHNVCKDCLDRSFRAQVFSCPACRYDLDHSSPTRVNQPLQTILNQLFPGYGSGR

Sequences of proteins named here, by UniProt entry; tags and fusion partners are left off.
UniProt Q9Z330: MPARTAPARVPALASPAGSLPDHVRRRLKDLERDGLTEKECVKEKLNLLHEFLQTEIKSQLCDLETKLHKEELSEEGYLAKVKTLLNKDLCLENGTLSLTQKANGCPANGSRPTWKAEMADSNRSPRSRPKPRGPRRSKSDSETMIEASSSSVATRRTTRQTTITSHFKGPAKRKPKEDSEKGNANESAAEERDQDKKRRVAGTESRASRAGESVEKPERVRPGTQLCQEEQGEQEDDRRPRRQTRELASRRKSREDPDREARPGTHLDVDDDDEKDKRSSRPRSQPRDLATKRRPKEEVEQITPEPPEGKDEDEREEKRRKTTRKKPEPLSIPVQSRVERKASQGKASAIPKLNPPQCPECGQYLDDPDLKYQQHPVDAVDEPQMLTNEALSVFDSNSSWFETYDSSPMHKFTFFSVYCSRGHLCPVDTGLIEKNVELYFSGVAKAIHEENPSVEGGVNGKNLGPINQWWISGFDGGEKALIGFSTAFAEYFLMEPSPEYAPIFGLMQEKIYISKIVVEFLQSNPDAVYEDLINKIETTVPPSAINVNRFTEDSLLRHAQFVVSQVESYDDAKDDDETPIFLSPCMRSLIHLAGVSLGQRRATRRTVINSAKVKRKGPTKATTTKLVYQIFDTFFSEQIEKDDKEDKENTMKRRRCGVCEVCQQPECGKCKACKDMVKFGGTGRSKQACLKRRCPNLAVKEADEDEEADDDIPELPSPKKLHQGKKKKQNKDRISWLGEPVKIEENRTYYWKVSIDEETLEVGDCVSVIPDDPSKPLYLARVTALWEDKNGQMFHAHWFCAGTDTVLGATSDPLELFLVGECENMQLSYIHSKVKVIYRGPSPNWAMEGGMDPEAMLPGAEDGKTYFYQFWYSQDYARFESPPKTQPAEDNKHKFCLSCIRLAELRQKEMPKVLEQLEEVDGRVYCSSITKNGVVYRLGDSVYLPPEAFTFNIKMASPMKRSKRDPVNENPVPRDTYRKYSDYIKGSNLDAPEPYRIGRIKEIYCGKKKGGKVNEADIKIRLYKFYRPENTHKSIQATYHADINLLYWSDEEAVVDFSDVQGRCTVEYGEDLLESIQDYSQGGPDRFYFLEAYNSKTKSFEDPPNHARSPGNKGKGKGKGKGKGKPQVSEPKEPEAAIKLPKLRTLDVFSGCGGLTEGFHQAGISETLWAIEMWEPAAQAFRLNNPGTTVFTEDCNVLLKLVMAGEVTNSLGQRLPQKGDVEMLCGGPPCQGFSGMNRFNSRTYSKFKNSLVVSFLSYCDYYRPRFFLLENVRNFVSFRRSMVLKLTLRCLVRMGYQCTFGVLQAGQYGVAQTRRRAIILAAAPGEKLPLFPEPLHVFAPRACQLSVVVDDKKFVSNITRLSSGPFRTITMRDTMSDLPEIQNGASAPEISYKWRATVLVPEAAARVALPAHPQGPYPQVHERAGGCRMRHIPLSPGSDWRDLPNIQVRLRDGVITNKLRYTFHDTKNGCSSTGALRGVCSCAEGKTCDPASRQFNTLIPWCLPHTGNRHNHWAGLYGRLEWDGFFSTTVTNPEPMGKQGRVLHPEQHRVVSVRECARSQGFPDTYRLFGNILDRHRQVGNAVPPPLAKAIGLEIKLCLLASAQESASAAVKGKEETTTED

[2] = molecular target: T1, ubiquitin-like containing PHD and RING finger domains 1 (UHRF1) (rat (endogenous in NRK-49F)); test: proximity ligation; in situ PLA kit (Sigma) in NRK-49F cells, with or without TGF-β1; also with NSC232003 (50 μM pre-incubation), which weakened the signal; red fluorescent signals by microscopy

In the case of “DNA methyltransferase 1 (DNMT1) (from UniProt Q9Z330 1-1622) (enzyme)”, the binding [1] is reported as “binds” and the binding [2] is reported as “binds”.

From paper PMC12149316
